Results published in PMC7948964.
These are yes or no findings as the source states them, for the method shown. Binding seen in cells or lysates may run through a third protein. Some entries that bind do so weakly or less than the wild type. For part of these data: Where a sequence is shown, tags or fusion partners need not be part of it. One block for each molecule: values may come before it.

Sequences of proteins named here, by UniProt entry; tags and fusion partners are left off.
UniProt O95714: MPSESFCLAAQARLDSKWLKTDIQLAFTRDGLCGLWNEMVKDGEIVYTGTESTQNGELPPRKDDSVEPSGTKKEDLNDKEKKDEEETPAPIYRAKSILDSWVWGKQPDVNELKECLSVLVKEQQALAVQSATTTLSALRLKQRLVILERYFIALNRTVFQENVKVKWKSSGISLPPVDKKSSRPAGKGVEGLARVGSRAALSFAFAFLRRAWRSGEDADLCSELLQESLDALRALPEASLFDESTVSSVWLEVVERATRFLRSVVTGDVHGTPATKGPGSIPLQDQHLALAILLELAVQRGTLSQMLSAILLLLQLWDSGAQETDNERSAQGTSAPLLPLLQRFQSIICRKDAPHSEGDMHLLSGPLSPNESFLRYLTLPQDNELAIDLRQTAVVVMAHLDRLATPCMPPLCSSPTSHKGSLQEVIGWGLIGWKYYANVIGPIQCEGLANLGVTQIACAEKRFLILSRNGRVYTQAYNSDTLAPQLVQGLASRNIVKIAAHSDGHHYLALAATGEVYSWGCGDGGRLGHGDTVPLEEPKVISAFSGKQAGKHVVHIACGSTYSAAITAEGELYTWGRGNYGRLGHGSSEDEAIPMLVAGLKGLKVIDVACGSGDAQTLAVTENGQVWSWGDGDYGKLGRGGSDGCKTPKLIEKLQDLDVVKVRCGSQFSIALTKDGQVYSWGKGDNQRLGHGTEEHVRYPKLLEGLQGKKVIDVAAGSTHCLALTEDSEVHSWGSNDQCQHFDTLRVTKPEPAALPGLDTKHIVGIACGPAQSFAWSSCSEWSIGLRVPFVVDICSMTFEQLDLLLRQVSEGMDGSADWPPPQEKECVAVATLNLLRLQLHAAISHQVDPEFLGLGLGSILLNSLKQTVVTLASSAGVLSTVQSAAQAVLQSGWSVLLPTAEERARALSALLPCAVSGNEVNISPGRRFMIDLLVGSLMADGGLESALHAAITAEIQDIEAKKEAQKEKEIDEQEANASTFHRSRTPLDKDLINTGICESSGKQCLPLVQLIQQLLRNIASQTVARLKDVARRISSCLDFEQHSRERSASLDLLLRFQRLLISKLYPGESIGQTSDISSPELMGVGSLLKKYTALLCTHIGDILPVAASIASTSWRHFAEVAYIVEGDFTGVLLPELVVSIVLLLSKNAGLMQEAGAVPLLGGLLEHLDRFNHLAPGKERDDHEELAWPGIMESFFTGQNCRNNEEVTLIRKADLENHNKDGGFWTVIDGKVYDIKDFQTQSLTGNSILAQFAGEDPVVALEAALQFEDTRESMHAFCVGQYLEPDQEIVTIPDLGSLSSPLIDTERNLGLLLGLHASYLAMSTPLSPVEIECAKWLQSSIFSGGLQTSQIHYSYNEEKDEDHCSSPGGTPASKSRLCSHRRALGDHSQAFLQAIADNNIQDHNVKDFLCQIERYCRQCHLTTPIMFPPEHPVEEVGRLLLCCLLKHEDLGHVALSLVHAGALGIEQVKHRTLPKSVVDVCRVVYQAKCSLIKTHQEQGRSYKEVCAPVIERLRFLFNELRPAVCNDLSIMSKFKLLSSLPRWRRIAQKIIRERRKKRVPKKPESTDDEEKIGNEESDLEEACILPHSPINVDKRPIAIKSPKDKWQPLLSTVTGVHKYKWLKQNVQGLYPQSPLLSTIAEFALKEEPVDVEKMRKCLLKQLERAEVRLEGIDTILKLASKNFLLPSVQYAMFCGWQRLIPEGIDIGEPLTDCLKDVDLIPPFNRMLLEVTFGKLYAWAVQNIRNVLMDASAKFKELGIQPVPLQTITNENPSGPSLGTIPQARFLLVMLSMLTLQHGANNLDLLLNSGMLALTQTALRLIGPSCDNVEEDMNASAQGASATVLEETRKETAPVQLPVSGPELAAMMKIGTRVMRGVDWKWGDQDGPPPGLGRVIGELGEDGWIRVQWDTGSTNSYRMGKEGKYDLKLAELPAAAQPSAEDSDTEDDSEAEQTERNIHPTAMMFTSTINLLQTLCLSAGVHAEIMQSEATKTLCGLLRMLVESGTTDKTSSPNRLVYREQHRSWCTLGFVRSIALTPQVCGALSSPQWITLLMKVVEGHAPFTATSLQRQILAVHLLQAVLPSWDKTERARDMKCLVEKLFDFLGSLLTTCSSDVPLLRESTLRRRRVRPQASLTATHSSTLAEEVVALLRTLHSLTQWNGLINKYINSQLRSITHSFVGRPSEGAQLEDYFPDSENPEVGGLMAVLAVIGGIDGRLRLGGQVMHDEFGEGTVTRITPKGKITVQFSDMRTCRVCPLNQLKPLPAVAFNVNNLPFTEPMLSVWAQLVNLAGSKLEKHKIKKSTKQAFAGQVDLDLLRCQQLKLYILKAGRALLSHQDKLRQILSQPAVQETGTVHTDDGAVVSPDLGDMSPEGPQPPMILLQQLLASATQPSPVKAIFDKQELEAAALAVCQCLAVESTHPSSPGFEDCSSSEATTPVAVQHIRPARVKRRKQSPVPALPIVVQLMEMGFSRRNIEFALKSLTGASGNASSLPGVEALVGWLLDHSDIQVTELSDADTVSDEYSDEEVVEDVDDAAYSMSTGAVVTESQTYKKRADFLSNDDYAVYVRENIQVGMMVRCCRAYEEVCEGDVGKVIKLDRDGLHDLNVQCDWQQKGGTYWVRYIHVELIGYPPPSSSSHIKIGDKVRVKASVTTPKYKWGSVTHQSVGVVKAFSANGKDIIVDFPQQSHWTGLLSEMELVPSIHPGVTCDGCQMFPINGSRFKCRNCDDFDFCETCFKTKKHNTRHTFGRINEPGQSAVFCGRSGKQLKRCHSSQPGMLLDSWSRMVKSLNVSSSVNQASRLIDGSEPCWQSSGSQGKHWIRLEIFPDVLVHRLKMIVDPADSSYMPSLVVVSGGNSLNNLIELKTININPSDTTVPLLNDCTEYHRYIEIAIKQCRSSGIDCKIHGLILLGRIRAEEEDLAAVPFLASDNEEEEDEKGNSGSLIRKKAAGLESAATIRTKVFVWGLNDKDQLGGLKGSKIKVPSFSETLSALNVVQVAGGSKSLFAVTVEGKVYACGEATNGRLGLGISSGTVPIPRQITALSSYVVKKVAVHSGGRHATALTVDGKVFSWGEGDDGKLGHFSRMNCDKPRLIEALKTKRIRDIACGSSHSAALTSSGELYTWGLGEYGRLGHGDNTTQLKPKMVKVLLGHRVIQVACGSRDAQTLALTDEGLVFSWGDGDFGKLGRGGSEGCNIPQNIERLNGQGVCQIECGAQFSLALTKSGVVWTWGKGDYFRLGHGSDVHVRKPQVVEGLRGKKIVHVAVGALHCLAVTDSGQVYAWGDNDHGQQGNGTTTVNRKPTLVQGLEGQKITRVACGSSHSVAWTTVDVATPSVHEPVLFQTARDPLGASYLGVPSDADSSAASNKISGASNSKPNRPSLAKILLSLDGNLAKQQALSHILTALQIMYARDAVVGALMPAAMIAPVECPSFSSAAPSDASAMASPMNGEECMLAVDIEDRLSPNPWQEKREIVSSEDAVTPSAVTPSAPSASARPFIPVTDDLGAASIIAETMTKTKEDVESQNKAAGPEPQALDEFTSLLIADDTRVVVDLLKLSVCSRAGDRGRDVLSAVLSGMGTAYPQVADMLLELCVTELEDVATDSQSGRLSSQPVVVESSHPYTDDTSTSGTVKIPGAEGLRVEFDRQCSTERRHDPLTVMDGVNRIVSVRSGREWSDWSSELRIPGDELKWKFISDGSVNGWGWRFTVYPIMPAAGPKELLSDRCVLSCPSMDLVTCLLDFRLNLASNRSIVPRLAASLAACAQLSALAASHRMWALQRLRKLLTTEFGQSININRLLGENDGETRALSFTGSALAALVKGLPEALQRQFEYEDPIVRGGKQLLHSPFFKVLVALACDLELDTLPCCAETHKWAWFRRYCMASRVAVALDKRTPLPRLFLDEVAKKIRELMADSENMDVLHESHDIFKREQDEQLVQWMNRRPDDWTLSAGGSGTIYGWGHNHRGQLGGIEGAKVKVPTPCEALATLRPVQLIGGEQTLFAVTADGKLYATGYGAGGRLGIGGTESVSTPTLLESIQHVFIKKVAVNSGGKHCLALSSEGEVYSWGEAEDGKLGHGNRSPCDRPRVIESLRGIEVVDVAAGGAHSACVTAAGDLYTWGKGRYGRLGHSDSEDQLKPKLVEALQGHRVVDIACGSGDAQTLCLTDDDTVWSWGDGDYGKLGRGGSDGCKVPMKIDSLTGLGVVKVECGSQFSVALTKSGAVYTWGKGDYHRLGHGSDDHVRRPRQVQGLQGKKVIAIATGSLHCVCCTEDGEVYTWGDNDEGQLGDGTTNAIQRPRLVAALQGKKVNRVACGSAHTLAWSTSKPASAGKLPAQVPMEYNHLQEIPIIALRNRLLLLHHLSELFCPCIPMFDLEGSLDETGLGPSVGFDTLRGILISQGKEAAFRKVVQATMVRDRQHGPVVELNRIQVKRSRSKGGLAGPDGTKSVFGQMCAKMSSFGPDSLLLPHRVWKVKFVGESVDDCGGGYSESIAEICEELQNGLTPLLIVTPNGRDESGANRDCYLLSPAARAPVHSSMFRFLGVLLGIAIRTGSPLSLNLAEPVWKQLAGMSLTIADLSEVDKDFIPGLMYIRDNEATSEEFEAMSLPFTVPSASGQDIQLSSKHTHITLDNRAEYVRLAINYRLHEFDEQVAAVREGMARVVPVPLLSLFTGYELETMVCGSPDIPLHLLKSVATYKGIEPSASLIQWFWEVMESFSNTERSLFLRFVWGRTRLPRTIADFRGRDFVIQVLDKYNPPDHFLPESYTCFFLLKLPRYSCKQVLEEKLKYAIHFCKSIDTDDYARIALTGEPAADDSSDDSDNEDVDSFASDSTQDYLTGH

Columns and labels:
[1] = molecular target: endogenous HECTD1 (human (endogenous in HEK293ET)) (UniProt Q9ULT8); assay: co-IP; antibodies to endogenous HECT ligases (4 μg) coupled to Dynabeads protein G; lysates of HEK293ET/HEK293T cells expressing 3xFLAG TRABID constructs; 1 h at RT; four washes in Triton Lysis Buffer; anti-FLAG blot
[2] = molecular target: T1, GST-TRABID NZF 1 to 3 (AA1-200) (human) (UniProt Q9UGI0); assay: pull-down; 20 μg GST protein on glutathione magnetic agarose beads; cleared HEK293T lysate, 2 h at RT in pull-down buffer (150 mM NaCl, 25 mM Tris pH 7.4, 5 mM DTT, 0.1% NP-40) with BSA 0.5 mg/ml; five washes; only the target purified
T1 sequence: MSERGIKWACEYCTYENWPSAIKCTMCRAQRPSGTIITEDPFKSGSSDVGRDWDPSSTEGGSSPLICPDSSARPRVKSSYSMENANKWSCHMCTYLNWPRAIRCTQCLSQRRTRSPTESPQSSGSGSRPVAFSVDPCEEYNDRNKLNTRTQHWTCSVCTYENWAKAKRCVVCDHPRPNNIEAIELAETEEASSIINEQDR

[3] = molecular target: endogenous HERC2 (human (endogenous in HEK293ET)) (UniProt O95714); assay: co-IP; antibodies to endogenous HECT ligases (4 μg) coupled to Dynabeads protein G; lysates of HEK293ET/HEK293T cells expressing 3xFLAG TRABID constructs; 1 h at RT; four washes in Triton Lysis Buffer; anti-FLAG blot

binding [1]: no binding
binding [2]: binds weakly
Molecule: endogenous HERC2 (from UniProt O95714 1-4834) (enzyme)

binding [3]: binds weakly
B1: 3xFLAG_TRABID ΔOTU (TRABID 1-339) (domain or fragment, UniProt Q9UGI0 1-339)
chain: MSERGIKWACEYCTYENWPSAIKCTMCRAQRPSGTIITEDPFKSGSSDVGRDWDPSSTEGGSSPLICPDSSARPRVKSSYSMENANKWSCHMCTYLNWPRAIRCTQCLSQRRTRSPTESPQSSGSGSRPVAFSVDPCEEYNDRNKLNTRTQHWTCSVCTYENWAKAKRCVVCDHPRPNNIEAIELAETEEASSIINEQDRARWRGSCSSGNSQRRSPPATKRDSEVKMDFQRIELAGAVGSKEELEVDFKKLKQIKNRMKKTDWLFLNACVGVVEGDLAAIEAYKSSGGDIARQLTADEVRLLNRPSAFDVGYTLVHLAIRFQRQDMLAILLTEVSQQA
